Data reported in PubChem BioAssay AID2685 (National Center for Advancing Translational Sciences (NCATS), 2010).
This is one part of the list. These are further read-outs of the screen, such as a control signal, another cell line or another target. No call is given for them. The list favours compounds with an active or inconclusive main result. The note in brackets gives the kind of curve behind each potency; many fits are weak.

Test: qHTS Assay for Lipid Storage Modulators in Drosophila S3 Cells;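 as to cell number change: cells counted by Cell Tracker Red CMTPX staining in the red channel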
Settings: BODIPY lipid droplet fluorescence, 18-24 h; for cell number change: measured here: cell count max response, cells fed with added oleic acid
Summary of the method: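 Drosophila S3 cells got compounds at several concentrations plus oleic acid (400 uM solution). Laser-scanning cytometry with 488 nm excitation read lipid droplets at 500-530 nm and cells at 575-640 nm. Percent activity was relative to 20 uM Triacsin C.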

[1] = measured here: cell number channel AC50, cells fed with added oleic acid
[2] = measured here: lipid fluorescence (Fed channel) AC50, cells fed with added oleic acid

SMILES	cell number change	AC50 [1]	AC50 [2]
CCOC(=O)c1ccc(NC(C)=O)c([N+](=O)[O-])c1	38.2%	3.66 µM [rising, partial curve]	4.61 µM [rising, full curve]
CS(=O)(=O)N(Cc1ccc(Cl)cc1)c1ccc(C(=O)N2CCN(c3ccccc3)CC2)cc1	-11.7%	0.259 µM [falling, partial curve, poor fit]	0.058 µM [falling, full curve, poor fit]
Cc1cccc(NC(=O)COC(=O)c2cc3ccccc3oc2=O)c1	13.5%	0.82 µM [falling, single point]	–
CC(C)CC1C(C#N)=C(N)Oc2n[nH]c(-c3cccs3)c21 (stereo not given)	–	2.91 µM [rising, single point]	–
CC(NC(=O)c1ccc(C(F)(F)F)cc1)C(c1ccccc1)N1CCOCC1 (stereo not given)	1.59%	–	–
CCc1nnc(NC(=O)CSc2ncc(-c3ccccc3)[nH]2)s1	56.3%	10.3 µM [rising, partial curve]	–
C/C(CCC1CC(C)(C)OC1=O)=N\NC(N)=S (stereo not given)	7.04%	–	–
CCOC(=O)Nc1sc2c(c1C(N)=O)CCC(C)C2 (stereo not given)	-2.24%	–	–
O=C(NNC(=O)C1CCN(S(=O)(=O)c2ccccc2)CC1)c1ccccc1O	14%	–	4.47 µM [rising, single point]
COc1cc(C(=O)OCC(=O)NCc2ccc(F)cc2)cc(NC(=O)c2cccs2)c1OC	-48.1%	23.1 µM [falling, partial curve]	18.4 µM [falling, single point]
CC1CCCN(CCOc2ccc(Br)cc2)C1 (stereo not given)	1.18%	–	4.61 µM [rising, full curve, poor fit]
N#C/C(=C1/CCCCCN1)c1nnc2n1CCCCC2	1.51%	–	29.1 µM [falling, partial curve]
CC(C)N(C(=O)CN1C(=O)NC2(CCCCCC2)C1=O)C(C)C	–	–	6.51 µM [falling, single point]
CCN(CC(=O)Nc1c(F)cccc1F)C(=O)c1ccc(=O)[nH]c1	21.1%	–	–
O=c1c(Cc2c(F)cccc2Cl)c(O)ccn1CCCn1ccnc1	-0.214%	–	–
CCOC(=O)c1ccc(N=c2sc(C(=O)OC)cc(=O)n2-c2ccc(C(=O)OCC)cc2)cc1	-18%	–	0.92 µM [falling, full curve, poor fit]
COc1ccc(NS(=O)(=O)c2ccc(C)c(NC(=O)CN3C(=O)NC4(CCCC4)C3=O)c2)cc1	0.333%	–	6.51 µM [falling, single point]
CC(C(=O)N1CCCc2ccccc21)N1CCN(S(=O)(=O)c2ccccc2F)CC1 (stereo not given)	31.3%	9.2 µM [rising, single point]	6.51 µM [rising, single point]
Cc1ccc(/C=N/NC(=O)c2cc(C)oc2C)cc1	28.7%	–	2.59 µM [rising, partial curve]
CC(C)=CCCC1=CCC(/C=N/NC(N)=O)C(C)C1 (stereo not given)	-4.83%	–	–
CCCCCCCCNC(=O)/C(C#N)=C/c1ccc2c(c1)OCCO2	3.79%	0.259 µM [rising, full curve, poor fit]	18.4 µM [rising, single point]

SMILES	cell number change	AC50 [1]	AC50 [2]
CN(C(=O)COC(=O)CNC(=O)C12CC3CC(CC(C3)C1)C2)c1ccccc1	23.3%	3.26 µM [rising, full curve, poor fit]	–
COc1ccc(NS(=O)(=O)c2ccc3c(c2)NC(=O)CC(=O)N3)cc1OC	19.3%	–	–
CCOC(=O)C1=C(C)NC(C)=C(C(=O)OCC)C1c1cn(-c2ccccc2)nc1-c1ccco1	22.5%	–	0.731 µM [rising, full curve]
O=C(NCCc1ccccc1)c1ccc2[nH]c(=O)c(=O)[nH]c2c1	3.98%	–	6.51 µM [rising, partial curve, poor fit]
CCN(CC)c1ccc(NC(=O)COC(=O)Cc2ccsc2)cc1	24%	–	–
Cc1cn(C(=O)CN2C(=O)c3ccccc3C2=O)c(C)n1	-0.944%	–	–
CCOC(=O)N1CCN(c2ccc(C(=O)CC)cc2F)CC1	-13.9%	–	–
CN(C)CCCNc1cc(C(C)(C)C)nc2c(-c3ccccc3)cnn12	-38.8%	20.6 µM [falling, single point]	29.1 µM [falling, single point]
Cc1cccc(C)c1NC(=O)c1ccc(CN2CCc3ccccc3C2)cc1	-11.3%	4.61 µM [rising, single point]	–
N#C/C(=C\c1c(N2CCCCC2)nc2ccccn2c1=O)C(=O)NCc1ccco1	83.3%	16.4 µM [rising, single point]	–
O=C(Cn1cc(/C=N/O)c2ccccc21)N1CCOCC1	13.9%	–	0.13 µM [falling, full curve, poor fit]
CC(C)(C)c1ccc(C(=O)NCc2nnc(SCC(=O)NC3CCCCC3)o2)cc1	-28.7%	–	–
CN1CCN(c2ccc(C(CC(N)=O)NC(=O)c3ccccc3)cc2[N+](=O)[O-])CC1 (stereo not given)	-12.3%	–	–
O=C(c1cc(-c2ccc(Cl)cc2)on1)N1CCN(c2ccc(F)cc2)CC1	–	–	29.1 µM [falling, single point]
CCCCCCCNC(=O)c1cc(-c2ccncc2)nc2ccccc12	3.55%	–	6.51 µM [rising, partial curve, poor fit]
CCC1(c2ccccc2)NC(=O)N(CC(=O)NCc2ccc(C)cc2)C1=O (stereo not given)	40.1%	0.291 µM [rising, full curve]	29.1 µM [rising, single point]
Cc1ccc(OCc2cc(C(=O)N(C)CCc3ccccn3)no2)cn1	-9.24%	–	1.64 µM [falling, single point]
COCCOC(=O)c1c(C)oc2ccc(NS(=O)(=O)c3ccccc3)cc12	5.14%	–	1.64 µM [rising, partial curve]
CCOC(=O)C1CCCN(C(=O)/C(=C/c2ccco2)NC(=O)c2ccccc2)C1 (stereo not given)	-9.24%	–	–
COc1cccc(/C=N/NC(=O)CN(C2=NS(=O)(=O)c3ccccc32)c2ccccc2)c1	-8.02%	0.0058 µM [falling, full curve, poor fit]	0.00517 µM [falling, full curve, poor fit]
COc1ccc(N2CCN(C(=O)c3cc4c(-c5cccc(OC)c5)nn(C)c4s3)CC2)cc1	-9.87%	–	0.411 µM [rising, single point]

SMILES	cell number change	AC50 [1]	AC50 [2]
C=CCSc1nc2[nH]ncc2c(=O)[nH]1	20.8%	–	–
CC1=CCC2C(=O)N(c3cccc(C(=O)N(C)C4CCCCC4)c3)C(=O)C2C1 (stereo not given)	2.44%	–	1.3 µM [rising, full curve]
CCOc1ccc(NS(=O)(=O)c2ccc(C(=O)NCC(C)(C)N3CCOCC3)cc2)cc1	-1.99%	–	29.1 µM [rising, single point]
CN(CC(=O)Nc1ccccc1Cl)C1CCCCC1	-33.6%	23.1 µM [falling, single point]	–
CCOC(=O)c1ccc(NC(=O)Cn2nnc3ccccc32)cc1	-22%	–	–
COc1ccc(Cl)cc1C(=O)NCc1cn(C)nc1C	–	–	0.0517 µM [rising, full curve, poor fit]
Cc1ccccc1OCC(=O)OC(C(=O)c1ccccc1)c1ccccc1 (stereo not given)	-23.1%	–	0.058 µM [falling, full curve, poor fit]
Cc1[nH]c2ccc(-c3n[nH]c(=S)n3-c3ccc(Br)cc3)cc2c1C	-28.4%	–	20.6 µM [falling, single point]
O=C(Nc1cccc(C(F)(F)F)c1)c1cccc(NS(=O)(=O)c2ccc(O)c(C(=O)O)c2)c1	6.73%	–	–
Cc1cc(F)ccc1NCC(=O)Nc1ccccc1Br	-33.7%	32.6 µM [falling, single point]	20.6 µM [falling, partial curve, poor fit]
Cc1c(C2CC(=O)N(c3ccccc3)C2=O)[nH]n(-c2ccccc2)c1=O (stereo not given)	-8.37%	–	29.1 µM [rising, single point]
COC(=O)c1sccc1NN1C(=O)c2ccccc2C1=O	19.8%	4.11 µM [falling, single point]	3.66 µM [falling, single point]
COCCCNC(=O)CSc1nc2c(sc(=S)n2-c2cc(Cl)ccc2OC)c(=O)[nH]1	5.41%	–	29.1 µM [rising, single point]
CCOc1ccc(Oc2cc(NC(=O)c3ccco3)cc([N+](=O)[O-])c2)cc1	5.49%	–	16.4 µM [falling, partial curve]
Cc1nc2ccc([N+](=O)[O-])cc2c(=O)n1Cc1ccccc1Br	-16.3%	–	29.1 µM [falling, single point]
CCOC(=O)C1(S(=O)(=O)c2ccccc2)CCN(Cc2ccccc2)CC1	-21.3%	–	–
Cc1ccc(/C=N/NC(=O)c2cc(C)oc2C)o1	–	–	0.116 µM [falling, full curve, poor fit]
Cc1c(-c2n[nH]c(=S)n2-c2ccc(Br)cc2)nnn1-c1ccc(Cl)cc1	-50.7%	20.6 µM [falling, single point]	20.6 µM [falling, single point]
Cc1ccc(S(=O)(=O)N2CCN=C2SC(C)c2ccccc2)cc1 (stereo not given)	-6.36%	–	–
Cc1ccc(S(=O)(=O)N2[C@@H](c3cccc(Cl)c3)C(C(=O)O)=CC[C@H]2c2cccs2)cc1	-5.48%	–	0.13 µM [rising, full curve, poor fit]
COc1ccc(S(=O)(=O)NNc2nc(C)cc(C)n2)cc1[N+](=O)[O-]	-31.8%	18.4 µM [falling, single point]	14.6 µM [falling, partial curve]

Of the compounds above, these have a CF3 group:
SMILES	cell number change	AC50 [1]	AC50 [2]
CC(NC(=O)c1ccc(C(F)(F)F)cc1)C(c1ccccc1)N1CCOCC1 (stereo not given)	1.59%	–	–
O=C(Nc1cccc(C(F)(F)F)c1)c1cccc(NS(=O)(=O)c2ccc(O)c(C(=O)O)c2)c1	6.73%	–	–
